Source: patent US20230050846A1 (LIFESEARCH, priority 2019, published 2023)

Experiment: peptide made by a vendor (Fmoc solid-phase peptide synthesis)
Details: whole synthesis, acetate salts (Formula (I)-(IV)); trifluoroacetate salt (His-tag and biotin variants)

For “GSDQSENVDRGAGSIREAGGAFGKREQAEEERYFRAQSREQLAALKKHHEEEIVHHKKEIERLQKEIERHKQKIKMLKHDD”, which “final purity (method not given)” value is on record?
Its value is over 80%.

End groups of sequences in plain letters are not given here.
